Data as given in patent US5445935.

Target: tryptophan repressor (TrpR) (UniProt P0A881)
Assay: EMSA
Settings: CITED Carey 1988 gel retardation, operator target sequence, with tryptophan; purified recombinant protein

With “CTTGCACTAGTTAACTAGTCAGCAA (double strand) [fluorescein-labeled 25-mer trp operator duplex]” as the sequence, how does the Kd read?
The Kd was 0.5 nM.

The exact form of at least one protein or probe is not confirmed.
